Results as given in article PMC12900701.
These are yes or no findings as the source states them, for the method shown. Binding seen in cells or lysates may run through a third protein. Here binding means that the protein was enriched with, or labelled near, the bait; the list need not be complete.

Amino acid sequences for entries named in this document (tags omitted).
UniProt P62068: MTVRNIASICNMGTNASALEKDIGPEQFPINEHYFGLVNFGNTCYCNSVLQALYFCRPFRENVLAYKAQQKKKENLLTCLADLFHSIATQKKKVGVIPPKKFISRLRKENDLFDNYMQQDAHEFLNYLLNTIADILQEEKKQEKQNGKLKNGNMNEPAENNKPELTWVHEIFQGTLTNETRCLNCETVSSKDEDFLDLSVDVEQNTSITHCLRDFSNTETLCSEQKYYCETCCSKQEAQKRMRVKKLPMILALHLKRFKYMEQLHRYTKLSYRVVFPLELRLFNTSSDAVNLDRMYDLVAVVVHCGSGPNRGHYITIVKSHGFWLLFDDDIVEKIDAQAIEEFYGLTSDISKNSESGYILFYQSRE
UniProt Q8TAF3: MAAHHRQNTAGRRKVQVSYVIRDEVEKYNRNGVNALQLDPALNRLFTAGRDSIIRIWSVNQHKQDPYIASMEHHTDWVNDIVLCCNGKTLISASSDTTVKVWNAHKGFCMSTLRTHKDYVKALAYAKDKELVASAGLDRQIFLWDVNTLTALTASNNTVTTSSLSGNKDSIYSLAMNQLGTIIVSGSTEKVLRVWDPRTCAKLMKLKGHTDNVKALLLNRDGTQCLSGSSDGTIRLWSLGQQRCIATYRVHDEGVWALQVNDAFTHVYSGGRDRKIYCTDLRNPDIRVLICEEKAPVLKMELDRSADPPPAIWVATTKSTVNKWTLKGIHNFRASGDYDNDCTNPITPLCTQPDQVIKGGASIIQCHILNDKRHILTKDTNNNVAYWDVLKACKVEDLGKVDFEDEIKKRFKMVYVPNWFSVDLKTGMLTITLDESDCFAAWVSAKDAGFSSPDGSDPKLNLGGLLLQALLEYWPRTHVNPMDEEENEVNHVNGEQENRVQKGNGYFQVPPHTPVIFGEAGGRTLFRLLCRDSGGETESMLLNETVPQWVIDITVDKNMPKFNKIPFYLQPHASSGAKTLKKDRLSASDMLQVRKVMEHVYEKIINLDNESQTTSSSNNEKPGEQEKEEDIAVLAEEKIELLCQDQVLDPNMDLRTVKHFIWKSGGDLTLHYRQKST

Biological target: USP46 (USP46 FLAG group) (human) (UniProt P62068)
Assay: affinity purification with mass spectrometry; IP of USP46 from cell lysate with anti-USP46 antibody and Protein A/G magnetic beads, 4°C, 6 h; IP buffer 50 mM Tris-HCl, 150 mM NaCl, 5 mM EDTA, 1% NP-40, pH 7.4; USP46 FLAG group against vector control group; shotgun mass spectrometry of half of each sample

Molecule: UAF1 (from UniProt Q8TAF3 1-677)
- binding: binds

B1: POU4F1 (protein, UniProt Q01851 1-419)
chain: MMSMNSKQPHFAMHPTLPEHKYPSLHSSSEAIRRACLPTPPLQSNLFASLDETLLARAEALAAVDIAVSQGKSHPFKPDATYHTMNSVPCTSTSTVPLAHHHHHHHHHQALEPGDLLDHISSPSLALMAGAGGAGAAAGGGGAHDGPGGGGGPGGGGGPGGGPGGGGGGGPGGGGGGPGGGLLGGSAHPHPHMHSLGHLSHPAAAAAMNMPSGLPHPGLVAAAAHHGAAAAAAAAAAGQVAAASAAAAVVGAAGLASICDSDTDPRELEAFAERFKQRRIKLGVTQADVGSALANLKIPGVGSLSQSTICRFESLTLSHNNMIALKPILQAWLEEAEGAQREKMNKPELFNGGEKKRKRTSIAAPEKRSLEAYFAVQPRPSSEKIAAIAEKLDLKKNVVRVWFCNQRQKQKRMKFSATY
- binding: binds

B2: WDR20 (protein, UniProt Q8TBZ3 1-569)
chain: MATEGGGKEMNEIKTQFTTREGLYKLLPHSEYSRPNRVPFNSQGSNPVRVSFVNLNDQSGNGDRLCFNVGRELYFYIYKGVRKAADLSKPIDKRIYKGTQPTCHDFNHLTATAESVSLLVGFSAGQVQLIDPIKKETSKLFNEERLIDKSRVTCVKWVPGSESLFLVAHSSGNMYLYNVEHTCGTTAPHYQLLKQGESFAVHTCKSKSTRNPLLKWTVGEGALNEFAFSPDGKFLACVSQDGFLRVFNFDSVELHGTMKSYFGGLLCVCWSPDGKYIVTGGEDDLVTVWSFVDCRVIARGHGHKSWVSVVAFDPYTTSVEEGDPMEFSGSDEDFQDLLHFGRDRANSTQSRLSKRNSTDSRPVSVTYRFGSVGQDTQLCLWDLTEDILFPHQPLSRARTHTNVMNATSPPAGSNGNSVTTPGNSVPPPLPRSNSLPHSAVSNAGSKSSVMDGAIASGVSKFATLSLHDRKERHHEKDHKRNHSMGHISSKSSDKLNLVTKTKTDPAKTLGTPLCPRMEDVPLLEPLICKKIAHERLTVLIFLEDCIVTACQEGFICTWGRPGKVVSFNP
- binding: binds
